Experimental data: PubChem BioAssay AID2685 (National Center for Advancing Translational Sciences (NCATS), 2010)
The list shows a part of the results. The main result of the screen is listed elsewhere. These columns were measured beside it and carry no call. The list favours compounds with an active or inconclusive main result. The note in brackets gives the kind of curve behind each potency; many fits are weak.

Assay: qHTS Assay for Lipid Storage Modulators in Drosophila S3 Cells;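 on cell number change: cells counted by Cell Tracker Red CMTPX staining in the red channel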
Conditions: BODIPY lipid droplet fluorescence, 18-24 h; for cell number change: measured here: cell count max response, cells fed with added oleic acid
Procedure, shortened: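 Drosophila S3 cells got compounds at several concentrations plus oleic acid (400 uM solution). Laser-scanning cytometry with 488 nm excitation read lipid droplets at 500-530 nm and cells at 575-640 nm. Percent activity was relative to 20 uM Triacsin C.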

[1] = measured here: lipid fluorescence (Fed channel) AC50, cells fed with added oleic acid
[2] = measured here: cell number channel AC50, cells fed with added oleic acid

For `COCc1nnc(N)s1`, the cell number change was -19.6% and the AC50 [1] was 6.51 µM [falling, partial curve].
In the case of `O=C(Nc1nc2c(Br)cccc2s1)C1CC1`, the cell number change is reported as -6.05% and the AC50 [1] is reported as 0.00517 µM [falling, full curve, poor fit].
Compound `COc1cccc(NC(=O)COC(=O)C2CC(=O)N(c3ccc(C)cc3)C2)c1` (stereo not drawn) has a cell number change of -0.304%.
With `NS(=O)(=O)c1ccc(CNC(=O)c2ccc3ccccc3n2)cc1` the cell number change was -23.8% and the AC50 [1] was 6.51 µM [falling, single point].
In the case of `CCN1C(=O)/C(=C\N2CCOCC2)SC1=S`, the cell number change is reported as -98.7% and the AC50 [2] is reported as 32.6 µM [falling, partial curve].
For `Cc1cccnc1NC(=O)c1cccc(S(=O)(=O)N2CCCC2)c1`, the cell number change was 16.9%, the AC50 [2] was 0.013 µM [rising, full curve, poor fit] and the AC50 [1] was 0.058 µM [rising, full curve, poor fit].
With `CCOC(=O)N1CCC(N2Cc3cccc(C(=O)N4CC(C)CC(C)C4)c3C2=O)CC1` (stereo not drawn) the cell number change was 36.8% and the AC50 [2] was 29.1 µM [rising, single point].
Work on `C=C(C)CC(NCCc1ccccc1)c1ccco1` (stereo not drawn) yielded a cell number change of -14.6%.
`Cc1ccc(C(=O)OCC(=O)NN2C(=O)NC3(CCC(C)CC3)C2=O)cc1` (stereo not drawn) gave a cell number change of -3.5%.
With `O=C(O)[C@@H](c1ccccc1)N1Cc2ccccc2C1=O` the cell number change was 14.2% and the AC50 [1] was 3.66 µM [rising, single point].
With `CS(=O)(=O)Nc1ccc(C(=O)Nc2ccc3ccccc3c2)cc1` the cell number change was 68.6%, the AC50 [2] was 16.4 µM [rising, partial curve, poor fit] and the AC50 [1] was 6.51 µM [rising, partial curve, poor fit].
For `Nc1nonc1-n1nnc(C(=O)N/N=C/c2ccccc2Cl)c1-c1ccc2c(c1)OCO2`, the cell number change was 23.1% and the AC50 [1] was 6.51 µM [falling, single point].
For `Oc1ccc(Br)cc1/C=N/n1c(C2CCCCC2)n[nH]c1=S`, the cell number change was 2.78% and the AC50 [1] was 0.58 µM [falling, single point].
In the case of `O=C(NCC1CCCO1)C(=Cc1cccc([N+](=O)[O-])c1)C(=O)NCC1CCCO1` (stereo not drawn), the cell number change is reported as -2.53% and the AC50 [1] is reported as 18.4 µM [falling, single point].
For `CCOC(=O)c1c(C)[nH]c(C(=O)OCC(=O)Nc2ccc(OCC)cc2)c1C`, the cell number change was 46% and the AC50 [2] was 16.4 µM [rising, partial curve, poor fit].
In the case of `Nc1nc2nonc2nc1N`, the cell number change is reported as -19% and the AC50 [1] is reported as 0.731 µM [falling, single point].
Work on `COc1ccccc1CNC(=O)c1ccc2c(c1)OCO2` yielded a cell number change of -33.3%.
Compound `Cc1cc(C)c(C#N)c(SCC(=O)N(CCC#N)c2ccc3c(c2)OCCO3)n1` has a cell number change of 11.6%.
With `C[C@H]1CN=C(Nc2ccccc2)N1CCCC1CCCCC1` the cell number change was 8.68% and the AC50 [1] was 0.13 µM [falling, full curve, poor fit].
In the case of `COc1ccc(OC)c(CNC(=O)CCc2cn(C)c3ccccc23)c1`, the cell number change is reported as -6.38% and the AC50 [1] is reported as 25.9 µM [falling, single point].
With `O=C1OC(/C(=C\Nc2ccccc2)[N+](=O)[O-])c2ccccc21` (stereo not drawn) the cell number change was -15.4% and the AC50 [1] was 36.6 µM [falling, partial curve, poor fit].
With `CCN1CCN(c2cc(SC(C)C)nc(-c3ccc(OC)cc3)n2)CC1` the cell number change was -26.2% and the AC50 [1] was 7.31 µM [falling, single point].
In the case of `COc1ccccc1NC(=O)Cn1cc(C(=O)C(=O)N2CCOCC2)c2ccccc21`, the cell number change is reported as 22.9%.
In the case of `Cn1c(C(=O)NN)cc2cc(Oc3ccccc3)ccc21`, the cell number change is reported as -5.49% and the AC50 [1] is reported as 0.92 µM [rising, full curve].
With `O=C(N/N=C/c1ccc(OCc2ccccc2)cc1)c1ccc(O)cc1` the cell number change was -11.8% and the AC50 [1] was 0.517 µM [rising, single point].
With `Cc1nc(C(=O)NC2CCOCC2)sc1C1(C)CC(c2ccccc2)=NO1` (stereo not drawn) the cell number change was 8.26% and the AC50 [1] was 0.00411 µM [rising, full curve, poor fit].
With `CC(=O)N/C(=C\c1ccc(Br)s1)C(=O)O` the cell number change was 32.2%.
With `CC(=C/c1ccccc1)/C=N/n1c(C)n[nH]c1=S` the cell number change was -5.82% and the AC50 [1] was 29.1 µM [rising, single point].
In the case of `COc1ccc(CCn2c(C)cc(C(=O)COC(=O)c3cnccn3)c2C)cc1`, the cell number change is reported as 17.9% and the AC50 [1] is reported as 11.6 µM [rising, partial curve, poor fit].
In the case of `COc1ccc(-c2coc3cc(O)cc(O)c3c2=O)cc1OC`, the cell number change is reported as -12.1% and the AC50 [1] is reported as 4.11 µM [falling, full curve, poor fit].
Compound `CC(=O)Oc1c(-c2ccco2)oc2ccccc2c1=O` has a cell number change of -3.28%.
With `Cc1ccccc1N(CC(=O)NCC1CCCO1)C(=O)CCC(=O)Nc1nccs1` (stereo not drawn) the cell number change was 9.57% and the AC50 [1] was 2.91 µM [rising, single point].
In the case of `Clc1cc2nc(-c3cccnc3Cl)[nH]c2cc1Cl`, the cell number change is reported as 21.7% and the AC50 [1] is reported as 1.84 µM [rising, single point].
With `O=C(COC(=O)/C=C/c1ccc(F)cc1)Nc1ccc(Cl)cn1` the AC50 [1] was 6.51 µM [rising, single point].
For `CCC(C)N=Cc1c(NCc2ccco2)nc2c(C)cccn2c1=O` (stereo not drawn), the cell number change was -20.2% and the AC50 [1] was 0.206 µM [rising, full curve, poor fit].
In the case of `CCCC1(C(=O)O)NC(c2cccc(OC)c2O)C2C(=O)N(c3ccccc3)C(=O)C21` (stereo not drawn), the cell number change is reported as 8.32%.
For `Cc1ccc(NCN2C(=O)C3CC=C(Cl)CC3C2=O)cc1` (stereo not drawn), the cell number change was -35.7%, the AC50 [2] was 4.11 µM [falling, full curve, poor fit] and the AC50 [1] was 0.92 µM [falling, full curve].
For `CS(=O)(=O)N1CCN(C(=S)NCc2ccc(F)cc2)CC1`, the cell number change was -67.1%, the AC50 [2] was 25.9 µM [falling, partial curve] and the AC50 [1] was 1.16 µM [falling, full curve, poor fit].
With `CCN(Cc1ccccc1)C(=O)CN1C(=O)NC2(CC(C)CC(C)(C)C2)C1=O` (stereo not drawn) the cell number change was 30.9% and the AC50 [2] was 16.4 µM [rising, partial curve, poor fit].
With `CCc1ccc2nc(Nc3nc(COC)cc(=O)[nH]3)nc(C)c2c1` the cell number change was -23.9%.
For `CCCCNC(=O)c1ccc(SCC(=O)N(CC)CC)c([N+](=O)[O-])c1`, the cell number change was 8.28% and the AC50 [1] was 0.103 µM [rising, full curve, poor fit].
For `Nc1cc(=O)[nH]c(SCCSc2ccc(F)cc2)n1`, the AC50 [1] was 29.1 µM [falling, single point].
`COc1ccccc1CNCC(=O)Nc1ccc(C#N)cc1` gave a cell number change of 12.7%.
`COc1cc(C2NC(=O)CCC2[N+](=O)[O-])c(OC)cc1Br` (stereo not drawn) showed a cell number change of 11.1%.
For `O=C(c1ccncc1)N1CCN(C(=O)c2cccs2)CC1`, the cell number change was -24.6% and the AC50 [1] was 10.3 µM [falling, partial curve].
`O=C(CNCc1cccs1)Nc1cc(S(=O)(=O)N2CCCC2)ccc1Cl` showed a cell number change of 18%.
With `Cc1ccccc1NC(=O)c1ccc(Nc2c([N+](=O)[O-])cc([N+](=O)[O-])c3ccccc23)cc1` the cell number change was -8.17% and the AC50 [1] was 29.1 µM [falling, single point].
With `Cc1ccccc1NC(=O)C1CCC(C)(C(=O)O)C1(C)C` (stereo not drawn) the cell number change was -18.9% and the AC50 [1] was 25.9 µM [falling, single point].
In the case of `CN1CCN(CC(=O)N2c3ccccc3Sc3ccccc32)CC1`, the cell number change is reported as -6.57% and the AC50 [1] is reported as 0.731 µM [falling, full curve].
In the case of `Cc1ccnc(NC(=O)CCC(=O)N(Cc2ccco2)C(C(=O)NC(C)C)c2ccc(F)cc2)c1` (stereo not drawn), the cell number change is reported as 4.58% and the AC50 [1] is reported as 0.103 µM [falling, single point].
In the case of `O=C(CN(C(=O)CCC(=O)Nc1nccs1)c1ccc(F)cc1)NCC1CCCO1` (stereo not drawn), the cell number change is reported as 12.6% and the AC50 [1] is reported as 7.31 µM [rising, partial curve].
With `CC(C)(C)c1ccc(C(=O)NCc2nnc(SCC(=O)NCc3ccco3)o2)cc1` the cell number change was -18.1% and the AC50 [1] was 35.5 µM [falling, single point].
With `CC1(C)CC(N2CCCCC2)=CC(=[N+]2CCCCC2)C1` the AC50 [2] was 0.184 µM [falling, full curve, poor fit] and the AC50 [1] was 0.411 µM [falling, single point].
For `COc1ccc(N(CC(=O)NCc2cccs2)S(=O)(=O)c2c(C)nn(C)c2C)cc1`, the cell number change was 59.2%, the AC50 [2] was 2.91 µM [rising, single point] and the AC50 [1] was 0.13 µM [rising, single point].
In the case of `CCC(NC(=O)Nc1nccs1)(C(F)(F)F)C(F)(F)F`, the cell number change is reported as -56.2%, the AC50 [2] is reported as 18.4 µM [falling, partial curve] and the AC50 [1] is reported as 29.1 µM [falling, single point].
With `CCC(=O)Nc1ccc(S(=O)(=O)N2CCCCC2)cc1OC` the cell number change was 84.1%, the AC50 [2] was 8.2 µM [rising, partial curve, poor fit] and the AC50 [1] was 0.92 µM [rising, partial curve].
For `O=C(Cc1ccccc1)NCC(=O)Nc1ccc(OC(F)(F)F)cc1`, the cell number change was 17.5% and the AC50 [1] was 16.4 µM [rising, partial curve, poor fit].
With `CCN(CC)C(=O)c1sc(NC(=O)c2cccc([N+](=O)[O-])c2)c(C#N)c1C` the cell number change was -11.4% and the AC50 [1] was 6.51 µM [falling, single point].
In the case of `CCOC(=O)C(=O)/C(C#N)=C/Nc1ccccc1`, the cell number change is reported as 38.8%, the AC50 [2] is reported as 18.4 µM [rising, single point] and the AC50 [1] is reported as 1.03 µM [falling, full curve].
For `COc1ccc(Cl)cc1NC(=O)CN(C)C(=O)c1ccc(-n2nc(C)cc2C)cc1`, the cell number change was -6.45% and the AC50 [1] was 0.0206 µM [rising, single point].
With `O=C(Nc1ccc(F)cc1)N(Cc1ccco1)Cc1cc2cc3c(cc2[nH]c1=O)OCO3` the AC50 [2] was 2.91 µM [rising, partial curve].
In the case of `Cn1cc(CNC(=O)c2cc(-c3ccccc3)nc3ccc(Br)cc23)cn1`, the cell number change is reported as -54.2%, the AC50 [2] is reported as 29.1 µM [falling, single point] and the AC50 [1] is reported as 1.3 µM [falling, partial curve].
`CC(C(=O)N1CCOCC1)N1C(=O)C2C3C=CC(C4CC34)C2C1=O` (stereo not drawn) gave a cell number change of 4.46%.
